Here are results for three molecules from publication PMC6996382.

Amino acid sequences for entries named in this document (tags omitted). A change or cut given only in a name is not applied to a line headed by its entry. Residues count along the entry.
UniProt P46940: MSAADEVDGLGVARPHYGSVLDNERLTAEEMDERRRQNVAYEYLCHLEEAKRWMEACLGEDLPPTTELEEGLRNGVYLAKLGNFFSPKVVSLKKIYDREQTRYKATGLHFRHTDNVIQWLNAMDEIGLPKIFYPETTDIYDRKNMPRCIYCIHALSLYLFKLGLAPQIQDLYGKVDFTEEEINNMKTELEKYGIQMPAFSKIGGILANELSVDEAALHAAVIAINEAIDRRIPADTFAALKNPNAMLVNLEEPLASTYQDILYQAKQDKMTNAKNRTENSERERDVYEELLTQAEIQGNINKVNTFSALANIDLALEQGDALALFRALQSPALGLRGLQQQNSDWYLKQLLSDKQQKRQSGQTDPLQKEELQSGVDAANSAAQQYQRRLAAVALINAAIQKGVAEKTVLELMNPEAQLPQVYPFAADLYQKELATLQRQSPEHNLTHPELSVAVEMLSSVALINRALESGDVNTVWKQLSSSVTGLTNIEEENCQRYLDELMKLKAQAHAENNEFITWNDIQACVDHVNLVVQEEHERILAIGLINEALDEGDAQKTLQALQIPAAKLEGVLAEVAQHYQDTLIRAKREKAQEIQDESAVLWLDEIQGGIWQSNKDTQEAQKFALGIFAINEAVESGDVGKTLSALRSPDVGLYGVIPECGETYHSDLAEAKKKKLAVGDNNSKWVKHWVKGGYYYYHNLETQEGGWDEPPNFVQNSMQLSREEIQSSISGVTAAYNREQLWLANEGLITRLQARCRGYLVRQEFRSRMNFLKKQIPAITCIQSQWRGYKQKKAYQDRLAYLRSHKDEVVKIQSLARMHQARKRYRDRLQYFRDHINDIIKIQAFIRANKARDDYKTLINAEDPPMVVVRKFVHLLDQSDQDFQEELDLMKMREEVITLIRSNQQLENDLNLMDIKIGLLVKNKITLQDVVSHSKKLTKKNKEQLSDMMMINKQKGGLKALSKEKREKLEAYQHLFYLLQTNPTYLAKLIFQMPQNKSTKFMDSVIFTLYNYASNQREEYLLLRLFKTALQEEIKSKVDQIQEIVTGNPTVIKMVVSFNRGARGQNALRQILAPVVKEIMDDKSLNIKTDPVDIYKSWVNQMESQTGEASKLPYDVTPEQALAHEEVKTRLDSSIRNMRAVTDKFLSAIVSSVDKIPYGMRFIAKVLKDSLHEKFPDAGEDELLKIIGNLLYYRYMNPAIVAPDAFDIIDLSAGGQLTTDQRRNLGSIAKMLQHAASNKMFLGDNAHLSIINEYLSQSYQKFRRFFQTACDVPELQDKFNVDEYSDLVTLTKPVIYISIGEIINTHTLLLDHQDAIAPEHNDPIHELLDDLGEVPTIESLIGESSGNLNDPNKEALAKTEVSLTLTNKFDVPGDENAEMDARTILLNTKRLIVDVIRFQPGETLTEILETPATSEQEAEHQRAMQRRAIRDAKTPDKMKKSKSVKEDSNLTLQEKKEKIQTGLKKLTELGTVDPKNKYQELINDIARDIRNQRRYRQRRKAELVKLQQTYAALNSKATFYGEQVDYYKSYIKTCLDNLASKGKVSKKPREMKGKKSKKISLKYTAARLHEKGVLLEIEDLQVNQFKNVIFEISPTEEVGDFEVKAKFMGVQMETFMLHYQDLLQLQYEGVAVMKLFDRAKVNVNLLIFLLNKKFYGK
GST‐IQGAP1‐N (aa 1‐863): residues 1-863 of P46940
GST‐IQGAP1‐C (aa 746‐1657): residues 746-1657 of P46940

Assay [1] addresses IQ motif‐containing GTPase‐activating protein 1 (IQGAP1) (human (endogenous in skin fibroblasts)) (UniProt P46940). The assay can be described thus: co-IP; immunoprecipitation with an anti‐IQGAP1 mouse monoclonal antibody on Dynabeads G from skin fibroblast lysates (control subjects and patients with CSA), overnight at 4°C, washed with PBS with 0.02% Tween 20; Western blotting for p122RhoGAP/DLC‐1 and PLC‐δ1.

Assay [2] has as its target GST‐IQGAP1‐N (aa 1‐863) (human) (UniProt P46940). Nature of the assay: pull-down; GST fusion proteins immobilized on Glutathione Sepharose beads incubated for 3 hours at room temperature with supernatants of bacterial crude lysates; beads washed six times with lysis buffer; Western blotting with anti‐RH antibody; only the target purified.
Assay [3] has as its target GST‐IQGAP1‐C (aa 746‐1657) (human) (UniProt P46940). The description is as above.

Results are given in words; binding and its absence hold for the method and conditions named. In cells and extracts the contact can be indirect. Some binding calls cover weakened binding; strength is not graded here.

B1: Phospholipase C (PLC)‐δ1 (enzyme, UniProt P51178 1-756)
chain: MDSGRDFLTLHGLQDDEDLQALLKGSQLLKVKSSSWRRERFYKLQEDCKTIWQESRKVMRTPESQLFSIEDIQEVRMGHRTEGLEKFARDVPEDRCFSIVFKDQRNTLDLIAPSPADAQHWVLGLHKIIHHSGSMDQRQKLQHWIHSCLRKADKNKDNKMSFKELQNFLKELNIQVDDSYARKIFRECDHSQTDSLEDEEIEAFYKMLTQRVEIDRTFAEAAGSGETLSVDQLVTFLQHQQREEAAGPALALSLIERYEPSETAKAQRQMTKDGFLMYLLSADGSAFSLAHRRVYQDMGQPLSHYLVSSSHNTYLLEDQLAGPSSTEAYIRALCKGCRCLELDCWDGPNQEPIIYHGYTFTSKILFCDVLRAIRDYAFKASPYPVILSLENHCTLEQQRVMARHLHAILGPMLLNRPLDGVTNSLPSPEQLKGKILLKGKKLGGLLPPGGEGGPEATVVSDEDEAAEMEDEAVRSRVQHKPKEDKLRLAQELSDMVIYCKSVHFGGFSSPGTPGQAFYEMASFSENRALRLLQESGNGFVRHNVGHLSRIYPAGWRTDSSNYSPVEMWNGGCQIVALNFQTPGPEMDVYQGRFQDNGACGYVLKPAFLRDPNGTFNPRALAQGPWWARKRLNIRVISGQQLPKVNKNKNSIVDPKVTVEIHGVSRDVASRQTAVITNNGFNPWWDTEFAFEVVVPDLALIRFLVEDYDASSKNDFIGQSTIPLNSLKQGYRHVHLMSKNGDQHPSATLFVKISLQD
As to B1, in assay [1], the binding entry is “binds”.

B2: PLC‐δ1 (1‐756) (enzyme, UniProt P51178 1-756)
chain: B1 chain
Regarding B2, the results for the binding entry in assay [2] and in assay [3] were “binds” and “no binding”, respectively.

B3: p122RhoGTPase‐activating protein (GAP)/deleted in liver cancer‐1 (p122RhoGAP/DLC‐1) (protein, UniProt Q96QB1-1 1-1091)
chain: MCRKKPDTMILTQIEAKEACDWLRATGFPQYAQLYEDFLFPIDISLVKREHDFLDRDAIEALCRRLNTLNKCAVMKLEISPHRKRSDDSDEDEPCAISGKWTFQRDSKRWSRLEEFDVFSPKQDLVPGSPDDSHPKDGPSPGGTLMDLSERQEVSSVRSLSSTGSLPSHAPPSEDAATPRTNSVISVCSSSNLAGNDDSFGSLPSPKELSSFSFSMKGHEKTAKSKTRSLLKRMESLKLKSSHHSKHKAPSKLGLIISGPILQEGMDEEKLKQLNCVEISALNGNRINVPMVRKRSVSNSTQTSSSSSQSETSSAVSTPSPVTRTRSLSACNKRVGMYLEGFDPFNQSTFNNVVEQNFKNRESYPEDTVFYIPEDHKPGTFPKALTNGSFSPSGNNGSVNWRTGSFHGPGHISLRRENSSDSPKELKRRNSSSSMSSRLSIYDNVPGSILYSSSGDLADLENEDIFPELDDILYHVKGMQRIVNQWSEKFSDEGDSDSALDSVSPCPSSPKQIHLDVDNDRTTPSDLDSTGNSLNEPEEPSEIPERRDSGVGASLTRSNRHRLRWHSFQSSHRPSLNSVSLQINCQSVAQMNLLQKYSLLKLTALLEKYTPSNKHGFSWAVPKFMKRIKVPDYKDRSVFGVPLTVNVQRTGQPLPQSIQQAMRYLRNHCLDQVGLFRKSGVKSRIQALRQMNEGAIDCVNYEGQSAYDVADMLKQYFRDLPEPLMTNKLSETFLQIYQYVPKDQRLQAIKAAIMLLPDENREVLQTLLYFLSDVTAAVKENQMTPTNLAVCLAPSLFHLNTLKRENSSPRVMQRKQSLGKPDQKDLNENLAATQGLAHMIAECKKLFQVPEEMSRCRNSYTEQELKPLTLEALGHLGNDDSADYQHFLQDCVDGLFKEVKEKFKGWVSYSTSEQAELSYKKVSEGPPLRLWRSVIEVPAVPEEILKRLLKEQHLWDVDLLDSKVIEILDSQTEIYQYVQNSMAPHPARDYVVLRTWRTNLPKGACALLLTSVDHDRAPVVGVRVNVLLSRYLIEPCGPGKSKLTYMCRVDLRGHMPEWYTKSFGHLCAAEVVKIRDSFSNQNTETKDTKSR
Consider B3, for which the binding result in assay [1] is listed as “binds”.
